In PMC7055227:
pKd: −log10 of the molar value. For some assays here: A weaker result is weaker than the reference pair of the same experiment. For some assays here: Tags and fusion partners may be left off the protein sequences shown. For some assays here: Construct, isoform or probe ends are uncertain for at least one entry. For some assays here: At least one verdict rests on a figure or table, not on a statement of the authors.

By UniProt entry, the sequences of proteins in these tests, tags left out. Residues count along the entry.
UniProt P51608, 90-181: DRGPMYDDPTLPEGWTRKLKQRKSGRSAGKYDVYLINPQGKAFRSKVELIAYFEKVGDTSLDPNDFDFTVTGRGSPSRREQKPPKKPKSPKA

Assays:
Experiment in all cases: EMSA
[1] = target: T1, hMBD4 MBD (Homo sapiens) (UniProt O95243); settings: EMSA: 20 mM HEPES pH 7.3, 30 mM KCl, 1 mM EDTA, 10 mM (NH4)2SO4, 1 mM DTT, 0.2% Tween 20, 50 ng/uL poly(dA)-poly(dT), recombinant protein, protein details: N-term SpA(Z)-Factor Xa-TEV, C-term 8xHis, label: 5' 6-FAM on strand 1
T1 sequence: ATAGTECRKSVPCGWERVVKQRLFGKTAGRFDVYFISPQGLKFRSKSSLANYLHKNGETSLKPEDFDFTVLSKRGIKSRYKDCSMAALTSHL

[2] = target: T2, hMBD3 MBD (Homo sapiens) (UniProt O95983); settings: EMSA: 20 mM HEPES pH 7.3, 30 mM KCl, 1 mM EDTA, 10 mM (NH4)2SO4, 1 mM DTT, 0.2% Tween 20, 50 ng/uL poly(dA)-poly(dT), recombinant protein, protein details: N-term SpA(Z)-Factor Xa-TEV, C-term 8xHis, label: 5' 6-FAM on strand 1
T2 sequence: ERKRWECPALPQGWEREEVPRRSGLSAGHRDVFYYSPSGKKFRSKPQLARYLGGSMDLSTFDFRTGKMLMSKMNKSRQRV

[3] = target: hMeCP2 MBD (Homo sapiens) (UniProt P51608); settings: poly(dA)-poly(dT) 50 ng/uL; 5-methylcytosine at C12 of both strands (o2967/o2909); EMSA: 20 mM HEPES pH 7.3, 30 mM KCl, 1 mM EDTA, 10 mM (NH4)2SO4, 1 mM DTT, 0.2% Tween 20, 50 ng/uL poly(dA)-poly(dT); recombinant protein; protein details: N-term SpA(Z)-Factor Xa-TEV, C-term 8xHis; label: 5' 6-FAM on strand 1

“AAAAAAAAAAACGAAAAAAAAAAA (double strand) [mC/mC duplex (p06)]” was tested, and the binding result ([1]; 5-methylcytosine at C12 of both strands (o2967/o2909)) was “binds”, the binding result ([2]; overall low binding, 5-methylcytosine at C12 of both strands (o2967/o2909)) was “binds more weakly” and the pKd [3] was 7.57.
“AAAAAAAAAAACGAAAAAAAAAAA (double strand) [caC/fC duplex]”: binds more weakly ([2]; slightly less reduced, 5-carboxycytosine at C12 of one strand, 5-formylcytosine at C12 of the other, strand assignment not certain).
“AAAAAAAAAAACGAAAAAAAAAAA (double strand) [caC/caC duplex]”: binds more weakly ([1]; 5-carboxycytosine at C12 of both strands (o3117/o3114)); binds more weakly ([2]; slightly less reduced, 5-carboxycytosine at C12 of both strands (o3117/o3114)).
“AAAAAAAAAAACGAAAAAAAAAAA (double strand) [fC/fC duplex]”: binds more weakly ([1]; 5-formylcytosine at C12 of both strands (o3116/o3113)).
“AAAAAAAAAAACGAAAAAAAAAAA (double strand) [C/fC duplex]”: binds more weakly ([1]; 5-formylcytosine at C12 of one strand only, strand assignment not certain).
